Results are given in words; binding and its absence hold for the method and conditions named. For part of these data: Binding can be weak; no strength is given. For part of these data: Binding seen in cells or lysates may run through a third protein. For part of these data: Tags and fused reporters may be left off the sequences shown.
Legend:
[1] = molecular target: GST-tagged RASSF4 RA domain (human) (UniProt Q9H2L5); assay: pull-down; in vitro mixing: 10 µM purified GST-tagged RASSF RA domain (or GST alone) on glutathione beads incubated 2 h with 50 µM purified 6xHis-GTPase, unexchanged or exchanged with GDP, GMPPNP, GTPγS or GTP; three washes; SDS-PAGE; both purified
[2] = molecular target: GST-tagged RASSF3 RA domain (human) (UniProt Q86WH2); assay: as above
[3] = molecular target: GST-tagged RASSF8 RA domain (human) (UniProt Q8NHQ8); assay: as above
[4] = molecular target: T1, full-length FLAG-RASSF3 (human) (UniProt Q86WH2); assay: co-IP; HEK 293T co-transfected with FLAG-tagged RASSF and VENUS-tagged GTPase; lysis in 20 mM Tris-HCl pH 7.5, 150 mM NaCl, 5 mM MgCl2, 10% glycerol, 1% Triton X-100, 1 mM DTT; anti-FLAG on Protein G Sepharose 1 h, three washes; blot with anti-GFP
T1 sequence: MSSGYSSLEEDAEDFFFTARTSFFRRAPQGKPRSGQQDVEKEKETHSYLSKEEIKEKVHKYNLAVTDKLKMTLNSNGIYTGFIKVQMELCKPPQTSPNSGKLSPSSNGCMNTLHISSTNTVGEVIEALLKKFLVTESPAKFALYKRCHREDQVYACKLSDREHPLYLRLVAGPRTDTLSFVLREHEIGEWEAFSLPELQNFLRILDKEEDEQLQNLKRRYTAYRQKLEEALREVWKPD

Chains of the proteins cited; added tags and fusions are not shown. Lines headed by an entry give the natural chain unless they say otherwise; changes in a name come on top. Residues count along the entry.
UniProt Q8WWW0: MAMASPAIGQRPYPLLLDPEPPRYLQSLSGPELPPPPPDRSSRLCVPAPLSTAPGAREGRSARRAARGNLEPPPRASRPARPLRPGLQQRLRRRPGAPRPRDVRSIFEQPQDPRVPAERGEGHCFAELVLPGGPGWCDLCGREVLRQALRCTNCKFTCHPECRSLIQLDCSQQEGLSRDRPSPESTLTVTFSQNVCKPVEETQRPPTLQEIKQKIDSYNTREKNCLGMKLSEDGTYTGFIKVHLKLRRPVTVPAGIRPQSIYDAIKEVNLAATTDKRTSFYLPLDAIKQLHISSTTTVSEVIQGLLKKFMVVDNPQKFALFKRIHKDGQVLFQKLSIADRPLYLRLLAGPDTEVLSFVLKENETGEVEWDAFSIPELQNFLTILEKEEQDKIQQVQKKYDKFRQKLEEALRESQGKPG
UniProt Q8IXI2, residues 1-180: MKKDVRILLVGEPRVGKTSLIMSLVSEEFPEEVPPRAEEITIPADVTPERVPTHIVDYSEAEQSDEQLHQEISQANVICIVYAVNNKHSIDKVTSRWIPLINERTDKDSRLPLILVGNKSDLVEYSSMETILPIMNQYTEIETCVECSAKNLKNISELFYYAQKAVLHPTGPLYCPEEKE
UniProt Q8IXI1, residues 1-180: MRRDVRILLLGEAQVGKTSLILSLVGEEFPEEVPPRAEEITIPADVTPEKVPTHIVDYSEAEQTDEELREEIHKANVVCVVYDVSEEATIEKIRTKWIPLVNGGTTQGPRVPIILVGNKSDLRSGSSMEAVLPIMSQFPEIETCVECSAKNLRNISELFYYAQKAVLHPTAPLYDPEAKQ
UniProt P10301: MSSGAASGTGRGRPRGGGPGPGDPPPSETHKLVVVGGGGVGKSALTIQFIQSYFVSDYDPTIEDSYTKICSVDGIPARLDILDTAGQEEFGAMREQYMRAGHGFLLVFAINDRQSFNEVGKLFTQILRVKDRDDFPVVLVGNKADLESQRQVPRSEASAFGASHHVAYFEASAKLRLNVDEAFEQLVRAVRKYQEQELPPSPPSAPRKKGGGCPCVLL
UniProt P36405: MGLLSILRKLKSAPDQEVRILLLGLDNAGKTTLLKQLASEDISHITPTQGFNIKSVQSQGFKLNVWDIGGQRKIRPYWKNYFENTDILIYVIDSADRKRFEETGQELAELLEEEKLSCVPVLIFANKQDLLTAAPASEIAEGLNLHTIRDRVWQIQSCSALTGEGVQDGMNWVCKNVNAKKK
UniProt P56559: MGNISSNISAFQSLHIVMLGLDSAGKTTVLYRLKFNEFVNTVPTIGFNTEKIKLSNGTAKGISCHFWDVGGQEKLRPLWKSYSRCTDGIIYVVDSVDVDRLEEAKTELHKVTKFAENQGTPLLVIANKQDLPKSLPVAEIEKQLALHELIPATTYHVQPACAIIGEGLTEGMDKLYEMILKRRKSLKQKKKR
UniProt Q96KC2: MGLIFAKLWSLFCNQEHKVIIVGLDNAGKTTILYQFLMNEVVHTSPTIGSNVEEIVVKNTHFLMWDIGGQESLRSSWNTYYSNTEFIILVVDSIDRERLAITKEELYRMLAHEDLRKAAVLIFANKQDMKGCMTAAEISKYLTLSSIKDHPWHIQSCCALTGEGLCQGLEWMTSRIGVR
UniProt A6NH57: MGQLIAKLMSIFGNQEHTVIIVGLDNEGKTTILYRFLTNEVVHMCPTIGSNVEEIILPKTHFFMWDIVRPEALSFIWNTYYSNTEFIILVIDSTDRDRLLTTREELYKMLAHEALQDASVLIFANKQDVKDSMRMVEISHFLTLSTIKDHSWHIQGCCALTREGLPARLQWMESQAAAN
UniProt Q8N8L6: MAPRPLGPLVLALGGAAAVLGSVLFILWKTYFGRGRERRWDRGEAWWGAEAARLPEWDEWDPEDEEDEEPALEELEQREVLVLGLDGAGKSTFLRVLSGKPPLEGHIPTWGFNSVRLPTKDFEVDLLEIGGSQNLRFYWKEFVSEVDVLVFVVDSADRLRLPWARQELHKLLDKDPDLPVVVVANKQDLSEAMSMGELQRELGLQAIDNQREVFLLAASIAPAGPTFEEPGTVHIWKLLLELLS
UniProt Q969Q4: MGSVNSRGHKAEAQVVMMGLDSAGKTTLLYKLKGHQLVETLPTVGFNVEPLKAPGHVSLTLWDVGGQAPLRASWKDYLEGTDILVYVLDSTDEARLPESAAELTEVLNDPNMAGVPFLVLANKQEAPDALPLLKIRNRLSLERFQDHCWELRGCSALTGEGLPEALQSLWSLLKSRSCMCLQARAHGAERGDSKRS
UniProt Q3SXY8: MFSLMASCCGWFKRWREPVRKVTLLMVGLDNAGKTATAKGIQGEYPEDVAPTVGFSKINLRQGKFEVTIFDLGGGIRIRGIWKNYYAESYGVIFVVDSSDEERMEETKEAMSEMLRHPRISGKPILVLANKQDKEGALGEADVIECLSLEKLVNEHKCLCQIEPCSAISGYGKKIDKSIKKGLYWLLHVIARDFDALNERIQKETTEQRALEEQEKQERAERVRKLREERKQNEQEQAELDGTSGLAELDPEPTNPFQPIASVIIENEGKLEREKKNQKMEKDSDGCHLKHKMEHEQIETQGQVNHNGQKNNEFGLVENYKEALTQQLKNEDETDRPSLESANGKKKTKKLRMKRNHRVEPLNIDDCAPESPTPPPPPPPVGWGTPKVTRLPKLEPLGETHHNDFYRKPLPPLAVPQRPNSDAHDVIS
UniProt Q9NXU5: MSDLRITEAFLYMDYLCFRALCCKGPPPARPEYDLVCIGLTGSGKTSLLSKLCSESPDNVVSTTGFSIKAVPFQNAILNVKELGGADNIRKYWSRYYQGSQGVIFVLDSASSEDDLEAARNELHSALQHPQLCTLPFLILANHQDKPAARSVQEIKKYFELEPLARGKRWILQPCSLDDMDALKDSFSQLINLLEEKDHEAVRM
UniProt O95057: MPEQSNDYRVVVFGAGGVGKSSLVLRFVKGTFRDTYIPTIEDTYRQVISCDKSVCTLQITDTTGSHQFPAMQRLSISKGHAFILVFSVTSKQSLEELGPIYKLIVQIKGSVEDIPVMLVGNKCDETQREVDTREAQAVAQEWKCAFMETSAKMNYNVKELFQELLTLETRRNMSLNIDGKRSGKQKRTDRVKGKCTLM
UniProt P55040: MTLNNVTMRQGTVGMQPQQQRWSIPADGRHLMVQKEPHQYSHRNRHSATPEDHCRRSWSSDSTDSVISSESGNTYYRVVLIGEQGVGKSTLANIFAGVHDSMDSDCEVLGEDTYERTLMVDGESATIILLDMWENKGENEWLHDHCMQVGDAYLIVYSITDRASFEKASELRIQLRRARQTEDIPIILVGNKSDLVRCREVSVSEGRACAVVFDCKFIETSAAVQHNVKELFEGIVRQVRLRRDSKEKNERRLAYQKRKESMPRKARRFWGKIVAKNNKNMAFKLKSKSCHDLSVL
UniProt Q9NYR9: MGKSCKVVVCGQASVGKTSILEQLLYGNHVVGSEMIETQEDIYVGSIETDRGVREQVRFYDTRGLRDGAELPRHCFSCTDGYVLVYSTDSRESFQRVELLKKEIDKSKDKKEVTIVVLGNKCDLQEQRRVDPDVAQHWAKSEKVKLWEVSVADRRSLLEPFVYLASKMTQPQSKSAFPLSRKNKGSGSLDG
UniProt Q96D21: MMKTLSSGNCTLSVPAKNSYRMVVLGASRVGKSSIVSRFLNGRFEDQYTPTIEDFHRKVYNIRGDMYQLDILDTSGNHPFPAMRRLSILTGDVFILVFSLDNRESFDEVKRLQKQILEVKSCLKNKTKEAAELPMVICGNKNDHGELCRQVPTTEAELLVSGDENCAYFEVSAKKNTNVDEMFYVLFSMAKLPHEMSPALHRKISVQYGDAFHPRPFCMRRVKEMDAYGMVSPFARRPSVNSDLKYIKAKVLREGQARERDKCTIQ
UniProt Q92737: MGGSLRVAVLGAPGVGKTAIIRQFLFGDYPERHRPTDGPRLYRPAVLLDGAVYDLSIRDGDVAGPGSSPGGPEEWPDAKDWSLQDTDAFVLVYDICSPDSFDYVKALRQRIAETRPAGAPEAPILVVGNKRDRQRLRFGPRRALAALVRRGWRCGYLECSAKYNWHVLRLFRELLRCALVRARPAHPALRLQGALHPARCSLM
UniProt Q96S79: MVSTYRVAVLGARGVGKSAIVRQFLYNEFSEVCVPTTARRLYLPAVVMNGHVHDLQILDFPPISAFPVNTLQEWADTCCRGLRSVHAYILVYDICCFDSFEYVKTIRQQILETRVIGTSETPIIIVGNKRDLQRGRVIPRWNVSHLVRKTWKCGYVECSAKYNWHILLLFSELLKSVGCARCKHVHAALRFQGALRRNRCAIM
UniProt Q9NYN1: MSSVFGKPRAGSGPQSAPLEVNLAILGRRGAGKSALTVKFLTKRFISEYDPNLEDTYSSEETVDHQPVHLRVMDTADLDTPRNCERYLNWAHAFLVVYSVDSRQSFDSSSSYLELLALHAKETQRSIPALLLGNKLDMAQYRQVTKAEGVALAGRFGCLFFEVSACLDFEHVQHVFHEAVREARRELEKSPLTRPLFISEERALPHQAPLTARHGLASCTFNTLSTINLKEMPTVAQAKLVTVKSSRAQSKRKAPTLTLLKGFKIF
UniProt O75628: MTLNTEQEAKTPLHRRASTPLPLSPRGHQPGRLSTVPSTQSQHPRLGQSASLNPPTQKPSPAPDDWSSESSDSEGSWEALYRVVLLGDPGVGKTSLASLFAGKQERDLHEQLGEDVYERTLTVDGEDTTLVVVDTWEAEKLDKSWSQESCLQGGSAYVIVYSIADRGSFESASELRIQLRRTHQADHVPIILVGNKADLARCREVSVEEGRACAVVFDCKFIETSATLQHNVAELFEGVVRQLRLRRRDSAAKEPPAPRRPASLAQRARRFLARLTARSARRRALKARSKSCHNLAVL
UniProt Q8IYK8: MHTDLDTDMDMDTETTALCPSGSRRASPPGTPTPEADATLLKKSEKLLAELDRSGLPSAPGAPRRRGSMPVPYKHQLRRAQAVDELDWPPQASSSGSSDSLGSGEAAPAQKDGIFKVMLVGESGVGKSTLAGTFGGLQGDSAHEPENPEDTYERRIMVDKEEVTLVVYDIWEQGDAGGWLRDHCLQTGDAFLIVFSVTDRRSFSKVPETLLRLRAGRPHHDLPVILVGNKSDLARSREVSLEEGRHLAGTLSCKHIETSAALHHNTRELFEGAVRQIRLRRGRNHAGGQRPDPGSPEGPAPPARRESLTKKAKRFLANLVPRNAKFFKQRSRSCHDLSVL
UniProt Q9HBH0: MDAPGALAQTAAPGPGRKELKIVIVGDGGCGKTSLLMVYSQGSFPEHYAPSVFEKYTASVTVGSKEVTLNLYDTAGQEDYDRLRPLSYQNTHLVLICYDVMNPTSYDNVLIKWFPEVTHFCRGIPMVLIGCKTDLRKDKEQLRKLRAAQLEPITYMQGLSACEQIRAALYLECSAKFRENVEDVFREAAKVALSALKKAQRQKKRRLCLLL
UniProt P55042: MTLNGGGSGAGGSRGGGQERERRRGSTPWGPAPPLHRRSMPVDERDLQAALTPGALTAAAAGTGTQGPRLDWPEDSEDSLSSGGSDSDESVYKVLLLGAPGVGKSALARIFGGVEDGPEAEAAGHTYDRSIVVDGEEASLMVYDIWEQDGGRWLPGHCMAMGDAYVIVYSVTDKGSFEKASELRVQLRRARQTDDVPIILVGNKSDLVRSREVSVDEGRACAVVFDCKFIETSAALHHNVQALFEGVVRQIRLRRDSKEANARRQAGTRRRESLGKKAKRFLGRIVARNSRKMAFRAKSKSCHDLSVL

[5] = molecular target: T2, full-length FLAG-RASSF4 (human) (UniProt Q9H2L5); assay: as above
T2 sequence: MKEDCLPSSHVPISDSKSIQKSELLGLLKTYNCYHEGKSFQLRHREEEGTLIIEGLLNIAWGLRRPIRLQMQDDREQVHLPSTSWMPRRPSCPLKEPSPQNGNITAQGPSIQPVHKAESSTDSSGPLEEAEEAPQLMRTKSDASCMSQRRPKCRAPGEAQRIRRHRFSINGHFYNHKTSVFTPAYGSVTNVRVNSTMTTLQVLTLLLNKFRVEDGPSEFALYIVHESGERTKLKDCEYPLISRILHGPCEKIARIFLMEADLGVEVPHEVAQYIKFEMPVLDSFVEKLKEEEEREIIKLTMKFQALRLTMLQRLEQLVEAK

[6] = molecular target: GST-tagged RASSF5 RA domain (human) (UniProt Q8WWW0); assay: pull-down; validation pull-downs (Fig. EV1C, Fig. 2A): recombinant purified GST-RASSF5 RA or GST alone with HEK 293T lysates expressing VENUS-tagged GTPases (activated, wild-type or dominant-negative variants); Western blot; only the target purified
[7] = molecular target: GST-tagged RASSF8 RA domain (human) (UniProt Q8NHQ8); assay: pull-down; systematic screen: 2 µM purified GST-tagged RBD/RA domain (or GST alone) and glutathione beads incubated 30 min with HEK 293T lysate expressing a VENUS-tagged GTPase; Bio-Spin columns on a vacuum manifold, washed three times with lysis buffer (20 mM Tris-HCl pH 7.5, 150 mM NaCl, 5 mM MgCl2, 10% glycerol, 1% Triton X-100, 1% NP-40, 1 mM DTT); Western blot; GST-alone signal subtracted; heatmap from two replicates; only the target purified
[8] = molecular target: GST-tagged RASSF4 RA domain (human) (UniProt Q9H2L5); assay: as above
[9] = molecular target: GST-tagged RASSF3 RA domain (human) (UniProt Q86WH2); assay: as above
[10] = molecular target: GST-tagged RASSF5 RA domain (human) (UniProt Q8WWW0); assay: as above
[11] = molecular target: T3, full-length FLAG-RASSF8 (human) (UniProt Q8NHQ8); assay: co-IP; HEK 293T co-transfected with FLAG-tagged RASSF and VENUS-tagged GTPase; lysis in 20 mM Tris-HCl pH 7.5, 150 mM NaCl, 5 mM MgCl2, 10% glycerol, 1% Triton X-100, 1 mM DTT; anti-FLAG on Protein G Sepharose 1 h, three washes; blot with anti-GFP
T3 sequence: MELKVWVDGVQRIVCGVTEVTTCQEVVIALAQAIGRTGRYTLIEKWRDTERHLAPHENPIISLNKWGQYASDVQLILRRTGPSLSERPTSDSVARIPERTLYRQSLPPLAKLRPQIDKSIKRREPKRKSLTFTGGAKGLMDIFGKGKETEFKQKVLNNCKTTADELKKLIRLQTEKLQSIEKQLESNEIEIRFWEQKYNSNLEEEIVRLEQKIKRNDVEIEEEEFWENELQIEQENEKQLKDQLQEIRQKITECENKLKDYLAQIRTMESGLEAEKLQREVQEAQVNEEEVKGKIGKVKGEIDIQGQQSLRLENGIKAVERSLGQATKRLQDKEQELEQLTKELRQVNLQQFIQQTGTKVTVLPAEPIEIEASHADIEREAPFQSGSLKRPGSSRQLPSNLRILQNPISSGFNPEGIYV

**Q.** How did the binding [1] turn out when “6xHis-MIRO1-nGTPase (1-180) (from UniProt Q8IXI2 1-180) (domain or fragment)” was run?
**A.** no binding (tested: 50 µM 6xHis-GTPase with 10 µM GST-RA)

**Q.** What about the binding [2] of the same substance?
**A.** binds

**Q.** And the binding [3]?
**A.** binds

**Q.** With “6xHis-MIRO2-nGTPase (1-180) (from UniProt Q8IXI1 1-180) (domain or fragment)” as the substance, how does the binding [1] read?
**A.** no binding (tested: 50 µM 6xHis-GTPase with 10 µM GST-RA)

**Q.** And the binding [2]?
**A.** binds

**Q.** And the binding [3]?
**A.** binds

**Q.** “VENUS-tagged MIRO1-nGTPase domain (human) (domain or fragment)” was tested. Which binding [4] did it give?
**A.** binds

**Q.** What about the binding [5] of the same substance?
**A.** binds

**Q.** What does the source list for “VENUS-tagged MIRO2-nGTPase domain (human) (domain or fragment)”?
**A.** binding [4]: binds; binding [5]: binds

**Q.** For “VENUS-tagged RRAS S27N (from UniProt P10301)”, which binding [6] is on record?
**A.** binds

**Q.** Which binding [7] does the source give for “VENUS-tagged, mutationally activated ARL3 (from UniProt P36405)” here?
**A.** binds

**Q.** What does the source list for “VENUS-tagged, mutationally activated ARL4C (from UniProt P56559)”?
**A.** binding [8]: binds; binding [9]: binds; binding [10]: binds weakly; binding [7]: binds

**Q.** For “VENUS-tagged, mutationally activated ARL5B (from UniProt Q96KC2)”, which binding [7] is on record?
**A.** binds

**Q.** What does the source list for “VENUS-tagged, mutationally activated ARL5C (from UniProt A6NH57)”?
**A.** binding [9]: binds; binding [10]: binds; binding [7]: binds

**Q.** “VENUS-tagged, mutationally activated ARL10 (from UniProt Q8N8L6)” was tested. Which binding [7] did it give?
**A.** binds

**Q.** For “VENUS-tagged, mutationally activated ARL11 (from UniProt Q969Q4)”, which binding [9] is on record?
**A.** binds

**Q.** What about the binding [10] of the same substance?
**A.** binds weakly

**Q.** What about the binding [7] of the same substance?
**A.** binds

**Q.** “VENUS-tagged, mutationally activated ARL13B (from UniProt Q3SXY8)” was tested. Which binding [7] did it give?
**A.** binds

**Q.** Which binding [7] does the source give for “VENUS-tagged, mutationally activated ARL15 (from UniProt Q9NXU5)” here?
**A.** binds

**Q.** Which binding [8] does the source give for “VENUS-tagged, mutationally activated DIRAS1 (from UniProt O95057)” here?
**A.** binds

**Q.** “VENUS-tagged, mutationally activated GEM (from UniProt P55040)” was tested. Which binding [11] did it give?
**A.** binds

**Q.** And the binding [7]?
**A.** binds

**Q.** What does the source list for “VENUS-tagged, mutationally activated NKIRAS2 (from UniProt Q9NYR9)”?
**A.** binding [11]: binds; binding [5]: binds; binding [8]: binds; binding [7]: binds

**Q.** For “VENUS-tagged, mutationally activated RASD2 (from UniProt Q96D21)”, which binding [4] is on record?
**A.** binds

**Q.** And the binding [11]?
**A.** binds

**Q.** What about the binding [9] of the same substance?
**A.** binds

**Q.** What about the binding [7] of the same substance?
**A.** binds

**Q.** “VENUS-tagged, mutationally activated RASL10A (from UniProt Q92737)” was tested. Which binding [4] did it give?
**A.** binds

**Q.** And the binding [11]?
**A.** binds

**Q.** What about the binding [5] of the same substance?
**A.** binds

**Q.** What about the binding [8] of the same substance?
**A.** binds

**Q.** What about the binding [7] of the same substance?
**A.** binds

**Q.** With “VENUS-tagged, mutationally activated RASL10B (from UniProt Q96S79)” as the substance, how does the binding [11] read?
**A.** binds

**Q.** What about the binding [9] of the same substance?
**A.** binds

**Q.** With “VENUS-tagged, mutationally activated RASL12 (from UniProt Q9NYN1)” as the substance, how does the binding [11] read?
**A.** binds

**Q.** And the binding [7]?
**A.** binds

**Q.** For “VENUS-tagged, mutationally activated REM1 (from UniProt O75628)”, which binding [4] is on record?
**A.** binds

**Q.** What about the binding [11] of the same substance?
**A.** binds

**Q.** And the binding [5]?
**A.** binds

**Q.** What about the binding [7] of the same substance?
**A.** binds

**Q.** With “VENUS-tagged, mutationally activated REM2 (from UniProt Q8IYK8)” as the substance, how does the binding [4] read?
**A.** binds

**Q.** And the binding [11]?
**A.** binds

**Q.** What about the binding [5] of the same substance?
**A.** binds

**Q.** And the binding [8]?
**A.** binds

**Q.** And the binding [9]?
**A.** binds

**Q.** And the binding [7]?
**A.** binds

**Q.** With “VENUS-tagged, mutationally activated RHOF (from UniProt Q9HBH0)” as the substance, how does the binding [8] read?
**A.** binds

**Q.** And the binding [9]?
**A.** binds

**Q.** For “VENUS-tagged, mutationally activated RRAD (from UniProt P55042)”, which binding [11] is on record?
**A.** binds

**Q.** And the binding [7]?
**A.** binds
